# Measured values reported in the supplement of paper PMC10032668.
# Chains of the proteins cited; added tags and fusions are not shown.
# KHDRBS1, Q07666, UniProt Q07666, whole entry: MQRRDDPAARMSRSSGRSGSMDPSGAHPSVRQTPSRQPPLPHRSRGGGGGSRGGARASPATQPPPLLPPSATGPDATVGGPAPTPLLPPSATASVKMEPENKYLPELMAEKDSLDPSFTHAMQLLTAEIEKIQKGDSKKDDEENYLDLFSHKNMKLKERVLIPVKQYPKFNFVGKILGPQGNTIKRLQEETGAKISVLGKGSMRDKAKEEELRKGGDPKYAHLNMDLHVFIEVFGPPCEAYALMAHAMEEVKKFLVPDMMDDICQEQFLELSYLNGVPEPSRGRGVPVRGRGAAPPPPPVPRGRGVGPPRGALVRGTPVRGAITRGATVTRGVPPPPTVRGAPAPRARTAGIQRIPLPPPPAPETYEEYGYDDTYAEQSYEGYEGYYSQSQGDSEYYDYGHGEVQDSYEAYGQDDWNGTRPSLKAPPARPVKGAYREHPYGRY
# MORF4L2, Q15014, UniProt Q15014, whole entry: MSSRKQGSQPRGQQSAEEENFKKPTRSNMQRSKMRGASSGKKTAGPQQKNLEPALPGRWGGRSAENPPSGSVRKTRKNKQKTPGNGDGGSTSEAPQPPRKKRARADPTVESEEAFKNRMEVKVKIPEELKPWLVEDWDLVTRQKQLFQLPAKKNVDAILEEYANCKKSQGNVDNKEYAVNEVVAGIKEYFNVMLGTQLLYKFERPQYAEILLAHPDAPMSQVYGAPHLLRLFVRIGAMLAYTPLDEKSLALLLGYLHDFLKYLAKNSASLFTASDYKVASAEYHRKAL
# PIN1, Q13526, UniProt Q13526, whole entry: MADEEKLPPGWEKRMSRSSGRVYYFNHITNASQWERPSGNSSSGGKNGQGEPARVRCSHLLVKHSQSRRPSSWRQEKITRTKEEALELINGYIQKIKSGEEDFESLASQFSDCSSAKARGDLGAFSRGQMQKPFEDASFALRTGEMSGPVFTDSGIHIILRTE
# TUBGCP3, Q96CW5, UniProt Q96CW5, whole entry: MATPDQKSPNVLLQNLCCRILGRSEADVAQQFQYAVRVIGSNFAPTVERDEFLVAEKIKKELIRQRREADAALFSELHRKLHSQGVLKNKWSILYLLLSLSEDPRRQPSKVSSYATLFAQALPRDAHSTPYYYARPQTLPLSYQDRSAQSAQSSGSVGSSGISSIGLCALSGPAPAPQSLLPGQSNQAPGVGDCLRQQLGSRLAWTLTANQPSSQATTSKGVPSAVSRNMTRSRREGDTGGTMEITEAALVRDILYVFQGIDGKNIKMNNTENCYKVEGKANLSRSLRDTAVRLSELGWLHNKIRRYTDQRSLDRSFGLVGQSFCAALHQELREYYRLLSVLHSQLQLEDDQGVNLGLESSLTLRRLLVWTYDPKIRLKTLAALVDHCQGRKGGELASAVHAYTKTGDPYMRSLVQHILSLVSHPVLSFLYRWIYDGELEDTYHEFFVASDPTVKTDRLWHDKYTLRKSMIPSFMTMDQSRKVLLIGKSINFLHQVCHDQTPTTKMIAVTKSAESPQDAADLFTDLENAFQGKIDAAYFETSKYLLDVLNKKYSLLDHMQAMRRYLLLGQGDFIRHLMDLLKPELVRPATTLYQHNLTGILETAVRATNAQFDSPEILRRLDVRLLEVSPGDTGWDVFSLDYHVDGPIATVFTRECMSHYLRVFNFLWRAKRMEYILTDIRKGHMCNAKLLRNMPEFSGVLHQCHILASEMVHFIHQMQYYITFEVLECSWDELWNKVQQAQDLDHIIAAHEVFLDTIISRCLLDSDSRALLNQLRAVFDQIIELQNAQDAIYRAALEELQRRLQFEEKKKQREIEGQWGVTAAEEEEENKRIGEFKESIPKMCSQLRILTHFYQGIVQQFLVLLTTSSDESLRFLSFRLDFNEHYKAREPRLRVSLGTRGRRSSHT
# UBE2I, P63279, UniProt P63279, whole entry: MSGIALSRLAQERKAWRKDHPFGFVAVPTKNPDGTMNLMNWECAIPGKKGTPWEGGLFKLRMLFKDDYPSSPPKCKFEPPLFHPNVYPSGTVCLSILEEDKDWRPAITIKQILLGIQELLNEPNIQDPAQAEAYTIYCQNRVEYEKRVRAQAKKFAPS
# UFM1, P61960, UniProt P61960, whole entry: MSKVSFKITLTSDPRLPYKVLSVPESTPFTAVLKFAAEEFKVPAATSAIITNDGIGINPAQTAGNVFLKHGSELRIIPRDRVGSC
# YBX3, P16989, UniProt P16989, whole entry: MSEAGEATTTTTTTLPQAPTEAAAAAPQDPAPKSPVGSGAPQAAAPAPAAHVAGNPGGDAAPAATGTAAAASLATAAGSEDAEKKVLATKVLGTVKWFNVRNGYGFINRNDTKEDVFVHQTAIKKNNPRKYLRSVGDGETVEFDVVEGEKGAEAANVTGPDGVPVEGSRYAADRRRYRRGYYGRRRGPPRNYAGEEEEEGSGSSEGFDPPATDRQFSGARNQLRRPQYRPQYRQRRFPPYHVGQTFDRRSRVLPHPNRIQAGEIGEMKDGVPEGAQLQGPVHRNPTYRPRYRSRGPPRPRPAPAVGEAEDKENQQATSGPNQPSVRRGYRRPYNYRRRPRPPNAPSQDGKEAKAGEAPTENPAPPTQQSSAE
# The list shows a part of the results. Only hits are listed; about a third recur on repeated control peptides.
# Experiments:
# Assay in all cases: PRISMA enrichment of interactor (LFQ) in peptide spot vs all other peptide spots (log2 fold change); higher = stronger / more specific binding of the interactor to the peptide
# KHDRBS1, Q07666 = target: KHDRBS1, Q07666
# Experimental: (§1)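 PRISMA: 15-aa overlapping tiles (offset 8 aa) of 60 microproteins, plus SOS1/GLUT1 control peptides, were spot-synthesized on cellulose membranes in triplicate. Membranes were incubated with benzonase-treated HEK293T lysate, and bound proteins were identified by LC-MS/MS with LFQ. Enrichment is the log2 fold change of each protein in one spot versus all other spots. Only interactors passing the significance cutoff are listed.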
# LSM12, Q3MHD2 = target: LSM12, Q3MHD2
# Experimental: as §1
# MAZ, P56270 = target: MAZ, P56270
# Experimental: as §1
# MORF4L2, Q15014 = target: MORF4L2, Q15014
# Experimental: as §1
# MUC19, Q7Z5P9 = target: MUC19, Q7Z5P9
# Experimental: as §1
# NFX1, Q12986 = target: NFX1, Q12986
# Experimental: as §1
# NIFK, Q9BYG3 = target: NIFK, Q9BYG3
# Experimental: as §1
# NOL12, Q9UGY1 = target: NOL12, Q9UGY1
# Experimental: as §1
# NOL7, Q9UMY1 = target: NOL7, Q9UMY1
# Experimental: as §1
# [1] = substrate: NONO, Q15233
# Experimental: as §1
# [2] = substrate: NOSIP, Q9Y314
# Experimental: as §1
# PCLAF, Q15004 = target: PCLAF, Q15004
# Experimental: as §1
# [3] = substrate: PCNP, Q8WW12
# Experimental: as §1
# PIN1, Q13526 = target: PIN1, Q13526
# Experimental: as §1
# [4] = substrate: PPIF, P30405
# Experimental: as §1
# PSPC1, Q8WXF1 = target: PSPC1, Q8WXF1
# Experimental: as §1
# PTBP1, P26599 = target: PTBP1, P26599
# Experimental: as §1
# PYCR1, P32322 = target: PYCR1, P32322
# Experimental: as §1
# PYCR2, Q96C36 = target: PYCR2, Q96C36
# Experimental: as §1
# RBIS, Q8N0T1 = target: RBIS, Q8N0T1
# Experimental: as §1
# RBM3, P98179 = target: RBM3, P98179
# Experimental: as §1
# RBMX, P38159 = target: RBMX, P38159
# Experimental: as §1
# RBMXL1, Q96E39 = target: RBMXL1, Q96E39
# Experimental: as §1
# RPGRIP1L, Q68CZ1 = target: RPGRIP1L, Q68CZ1
# Experimental: as §1
# SERF2, P84101 = target: SERF2, P84101
# Experimental: as §1
# SFPQ, P23246 = target: SFPQ, P23246
# Experimental: as §1
# SLC9A3R2, Q15599 = target: SLC9A3R2, Q15599
# Experimental: as §1
# SMNDC1, O75940 = target: SMNDC1, O75940
# Experimental: as §1
# STMN2, Q93045 = target: STMN2, Q93045
# Experimental: as §1
# TMA16, Q96EY4 = target: TMA16, Q96EY4
# Experimental: as §1
# TUBGCP3, Q96CW5 = target: TUBGCP3, Q96CW5
# Experimental: as §1
# UBE2I, P63279 = target: UBE2I, P63279
# Experimental: as §1
# UBE2M, P61081 = target: UBE2M, P61081
# Experimental: as §1
# UFM1, P61960 = target: UFM1, P61960
# Experimental: as §1
# UTP23, Q9BRU9 = target: UTP23, Q9BRU9
# Experimental: as §1
# YBX3, P16989 = target: YBX3, P16989
# Experimental: as §1
# ZMAT2, Q96NC0 = target: ZMAT2, Q96NC0
# Experimental: as §1
# ZNF593, O00488 = target: ZNF593, O00488
# Experimental: as §1
# hCG_2014768 = target: hCG_2014768
# Experimental: as §1
binder,measurement,setting,value
VWEMTGFFLPDVLLS [NAV2-AS2_2],PRISMA enrichment of interactor (log2),"KHDRBS1, Q07666",6.93
same,PRISMA enrichment of interactor (log2),"LSM12, Q3MHD2",5.46
same,PRISMA enrichment of interactor (log2),"MAZ, P56270",4.8
same,PRISMA enrichment of interactor (log2),"MORF4L2, Q15014",5.51
same,PRISMA enrichment of interactor (log2),"MUC19, Q7Z5P9",6.94
same,PRISMA enrichment of interactor (log2),"NFX1, Q12986",4.27
same,PRISMA enrichment of interactor (log2),"NIFK, Q9BYG3",4.45
same,PRISMA enrichment of interactor (log2),"NOL12, Q9UGY1",4.57
same,PRISMA enrichment of interactor (log2),"NOL7, Q9UMY1",4.4
same,PRISMA enrichment of interactor (log2),[1],5.38
same,PRISMA enrichment of interactor (log2),[2],4.32
same,PRISMA enrichment of interactor (log2),"PCLAF, Q15004",4.97
same,PRISMA enrichment of interactor (log2),[3],3.9
same,PRISMA enrichment of interactor (log2),"PIN1, Q13526",5.47
same,PRISMA enrichment of interactor (log2),[4],4.49
same,PRISMA enrichment of interactor (log2),"PSPC1, Q8WXF1",4.9
same,PRISMA enrichment of interactor (log2),"PTBP1, P26599",4.93
same,PRISMA enrichment of interactor (log2),"PYCR1, P32322",5.13
same,PRISMA enrichment of interactor (log2),"PYCR2, Q96C36",4.59
same,PRISMA enrichment of interactor (log2),"RBIS, Q8N0T1",4.9
same,PRISMA enrichment of interactor (log2),"RBM3, P98179",5.56
same,PRISMA enrichment of interactor (log2),"RBMX, P38159",4.9
same,PRISMA enrichment of interactor (log2),"RBMXL1, Q96E39",3.87
same,PRISMA enrichment of interactor (log2),"RPGRIP1L, Q68CZ1",3.82
same,PRISMA enrichment of interactor (log2),"SERF2, P84101",6.83
same,PRISMA enrichment of interactor (log2),"SFPQ, P23246",5.44
same,PRISMA enrichment of interactor (log2),"SLC9A3R2, Q15599",4.68
same,PRISMA enrichment of interactor (log2),"SMNDC1, O75940",4.58
same,PRISMA enrichment of interactor (log2),"STMN2, Q93045",4.26
same,PRISMA enrichment of interactor (log2),"TMA16, Q96EY4",4.41
same,PRISMA enrichment of interactor (log2),"TUBGCP3, Q96CW5",4.09
same,PRISMA enrichment of interactor (log2),"UBE2I, P63279",4.04
same,PRISMA enrichment of interactor (log2),"UBE2M, P61081",4.24
same,PRISMA enrichment of interactor (log2),"UFM1, P61960",4.15
same,PRISMA enrichment of interactor (log2),"UTP23, Q9BRU9",4.88
same,PRISMA enrichment of interactor (log2),"YBX3, P16989",4.28
same,PRISMA enrichment of interactor (log2),"ZMAT2, Q96NC0",3.93
same,PRISMA enrichment of interactor (log2),"ZNF593, O00488",4.89
same,PRISMA enrichment of interactor (log2),hCG_2014768,4.72

# Given as tab-separated lines: entries from further up
binder	measurement	setting	value
VWEMTGFFLPDVLLS [NAV2-AS2_2]	PRISMA enrichment of interactor (log2)	RPGRIP1L, Q68CZ1	3.82
same	PRISMA enrichment of interactor (log2)	SERF2, P84101	6.83
